Experimental data taken from paper PMC7532664.
No constants are given. Whether binding was seen depends on the method and setting. Binding seen in cells or lysates may run through a third protein. Some results given as binding are weak or reduced against the parent protein; the word gives no strength.

Protein sequences, listed by entry. Tags and fused reporters are not part of them.
UniProt O75909: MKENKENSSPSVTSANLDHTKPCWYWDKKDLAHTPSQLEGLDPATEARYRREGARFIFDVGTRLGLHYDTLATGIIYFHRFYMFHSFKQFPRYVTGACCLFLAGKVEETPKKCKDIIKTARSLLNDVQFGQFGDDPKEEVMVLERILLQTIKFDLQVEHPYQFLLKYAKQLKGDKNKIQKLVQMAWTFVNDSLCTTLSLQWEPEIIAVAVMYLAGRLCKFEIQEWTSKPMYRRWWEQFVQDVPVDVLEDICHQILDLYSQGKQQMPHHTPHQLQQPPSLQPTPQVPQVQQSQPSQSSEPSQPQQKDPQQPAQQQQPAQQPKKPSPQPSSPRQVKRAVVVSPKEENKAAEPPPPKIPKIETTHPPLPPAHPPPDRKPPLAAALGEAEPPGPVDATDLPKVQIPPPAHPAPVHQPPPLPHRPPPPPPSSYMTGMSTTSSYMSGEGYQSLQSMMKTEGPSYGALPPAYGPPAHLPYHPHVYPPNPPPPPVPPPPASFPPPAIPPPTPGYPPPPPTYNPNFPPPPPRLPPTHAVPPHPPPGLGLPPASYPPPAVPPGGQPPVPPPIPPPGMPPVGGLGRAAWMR
UniProt P35222: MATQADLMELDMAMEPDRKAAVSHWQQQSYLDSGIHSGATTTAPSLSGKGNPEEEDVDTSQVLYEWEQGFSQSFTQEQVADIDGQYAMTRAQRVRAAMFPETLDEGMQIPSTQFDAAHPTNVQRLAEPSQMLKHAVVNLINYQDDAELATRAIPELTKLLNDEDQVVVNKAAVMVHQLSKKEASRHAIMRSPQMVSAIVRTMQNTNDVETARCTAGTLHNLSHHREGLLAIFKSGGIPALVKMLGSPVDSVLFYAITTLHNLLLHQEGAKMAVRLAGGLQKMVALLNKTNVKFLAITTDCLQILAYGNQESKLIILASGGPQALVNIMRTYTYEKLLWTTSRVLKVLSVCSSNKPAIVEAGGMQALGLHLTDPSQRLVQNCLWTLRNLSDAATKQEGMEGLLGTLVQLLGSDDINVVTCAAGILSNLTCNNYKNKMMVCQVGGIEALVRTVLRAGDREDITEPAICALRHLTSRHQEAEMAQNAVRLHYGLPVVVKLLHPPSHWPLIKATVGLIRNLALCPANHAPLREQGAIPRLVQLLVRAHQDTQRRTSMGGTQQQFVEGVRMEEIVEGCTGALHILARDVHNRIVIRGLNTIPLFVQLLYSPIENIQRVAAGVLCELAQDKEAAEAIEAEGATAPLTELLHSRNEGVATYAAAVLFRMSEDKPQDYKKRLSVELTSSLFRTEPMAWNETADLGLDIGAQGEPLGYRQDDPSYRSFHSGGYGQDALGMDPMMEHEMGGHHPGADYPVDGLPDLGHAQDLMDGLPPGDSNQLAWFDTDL

Legend:
[1] = molecular target: GST-Cyclin K fusion protein (UniProt O75909); experiment: pull-down; GST-Cyclin K immobilized on GST beads, incubated overnight at 4°C with lysates of HEK293T cells transfected with Flag-β-catenin; washed four times; Western blot; only the target purified
SFB-Cyclin K = SFB-Cyclin K (UniProt O75909); experiment: co-IP; A549 and H460 cells transfected with SFB-Cyclin K for 24 h, lysed in NETN, incubated with S beads overnight; washed four times with NETN; Western blot
[2] = molecular target: Cyclin K (endogenous) (human (endogenous in A549 and H460)) (UniProt O75909); experiment: co-IP; endogenous; A549 and H460 lysates incubated with anti-Cyclin K antibody, then protein A/G agarose overnight; IgG as negative control; Western blot

binding [1] | binding (SFB-Cyclin K) | binding [2] | Substance
binds | – | – | Flag-β-catenin (from UniProt P35222 1-781)
– | binds | binds | β-catenin (endogenous) (from UniProt P35222 1-781)
